For assay [1], the target named is CCT6A-TwinStrep (human) (UniProt P40227). The assay can be described thus: affinity purification with mass spectrometry; CCT-TwinStrep translated in RRL (600 ul), bound to StrepTactin Sepharose under native conditions, 4 °C 1.5 h, 5 washes in PSB125 (50 mM HEPES-KOH, 125 mM KOAc, 2 mM Mg(OAc)2); label-free quantitative MS against mock, CCT3-3xFLAG and CCT7-3xFLAG controls.

Amino acid sequences for entries named in this document (tags omitted). A change or cut given only in a name is not applied to a line headed by its entry. Chains listed by the source or under a name are the forms on record and can include a tag or linker.
UniProt P40227: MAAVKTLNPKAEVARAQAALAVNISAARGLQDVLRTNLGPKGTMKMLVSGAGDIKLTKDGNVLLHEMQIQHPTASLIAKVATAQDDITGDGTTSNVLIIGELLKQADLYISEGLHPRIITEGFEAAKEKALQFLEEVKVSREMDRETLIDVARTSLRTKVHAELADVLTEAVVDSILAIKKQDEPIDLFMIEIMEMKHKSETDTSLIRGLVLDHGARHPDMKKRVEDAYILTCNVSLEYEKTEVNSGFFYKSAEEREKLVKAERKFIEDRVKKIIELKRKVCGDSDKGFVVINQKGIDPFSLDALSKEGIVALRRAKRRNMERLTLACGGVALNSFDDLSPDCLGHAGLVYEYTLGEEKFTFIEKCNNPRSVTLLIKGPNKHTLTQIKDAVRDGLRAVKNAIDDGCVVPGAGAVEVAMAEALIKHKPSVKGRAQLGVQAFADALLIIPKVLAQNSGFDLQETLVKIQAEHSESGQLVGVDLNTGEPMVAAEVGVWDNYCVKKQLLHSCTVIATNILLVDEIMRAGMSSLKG
UniProt P50990: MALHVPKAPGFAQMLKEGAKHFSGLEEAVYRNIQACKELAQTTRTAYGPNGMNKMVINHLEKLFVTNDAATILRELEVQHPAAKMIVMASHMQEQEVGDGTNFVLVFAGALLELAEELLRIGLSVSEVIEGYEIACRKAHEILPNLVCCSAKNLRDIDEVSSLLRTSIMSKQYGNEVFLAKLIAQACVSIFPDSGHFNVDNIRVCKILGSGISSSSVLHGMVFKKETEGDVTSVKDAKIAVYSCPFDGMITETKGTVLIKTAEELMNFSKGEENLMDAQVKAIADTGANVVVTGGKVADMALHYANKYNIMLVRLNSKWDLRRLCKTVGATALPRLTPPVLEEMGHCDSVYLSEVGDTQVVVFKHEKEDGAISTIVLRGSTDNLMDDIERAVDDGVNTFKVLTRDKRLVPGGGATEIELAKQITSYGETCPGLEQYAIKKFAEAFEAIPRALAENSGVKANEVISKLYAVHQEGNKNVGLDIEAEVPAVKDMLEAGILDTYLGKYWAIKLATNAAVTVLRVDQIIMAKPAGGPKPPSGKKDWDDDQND
HERC2 (endogenous, rabbit reticulocyte lysate) (G1SRN9, form named): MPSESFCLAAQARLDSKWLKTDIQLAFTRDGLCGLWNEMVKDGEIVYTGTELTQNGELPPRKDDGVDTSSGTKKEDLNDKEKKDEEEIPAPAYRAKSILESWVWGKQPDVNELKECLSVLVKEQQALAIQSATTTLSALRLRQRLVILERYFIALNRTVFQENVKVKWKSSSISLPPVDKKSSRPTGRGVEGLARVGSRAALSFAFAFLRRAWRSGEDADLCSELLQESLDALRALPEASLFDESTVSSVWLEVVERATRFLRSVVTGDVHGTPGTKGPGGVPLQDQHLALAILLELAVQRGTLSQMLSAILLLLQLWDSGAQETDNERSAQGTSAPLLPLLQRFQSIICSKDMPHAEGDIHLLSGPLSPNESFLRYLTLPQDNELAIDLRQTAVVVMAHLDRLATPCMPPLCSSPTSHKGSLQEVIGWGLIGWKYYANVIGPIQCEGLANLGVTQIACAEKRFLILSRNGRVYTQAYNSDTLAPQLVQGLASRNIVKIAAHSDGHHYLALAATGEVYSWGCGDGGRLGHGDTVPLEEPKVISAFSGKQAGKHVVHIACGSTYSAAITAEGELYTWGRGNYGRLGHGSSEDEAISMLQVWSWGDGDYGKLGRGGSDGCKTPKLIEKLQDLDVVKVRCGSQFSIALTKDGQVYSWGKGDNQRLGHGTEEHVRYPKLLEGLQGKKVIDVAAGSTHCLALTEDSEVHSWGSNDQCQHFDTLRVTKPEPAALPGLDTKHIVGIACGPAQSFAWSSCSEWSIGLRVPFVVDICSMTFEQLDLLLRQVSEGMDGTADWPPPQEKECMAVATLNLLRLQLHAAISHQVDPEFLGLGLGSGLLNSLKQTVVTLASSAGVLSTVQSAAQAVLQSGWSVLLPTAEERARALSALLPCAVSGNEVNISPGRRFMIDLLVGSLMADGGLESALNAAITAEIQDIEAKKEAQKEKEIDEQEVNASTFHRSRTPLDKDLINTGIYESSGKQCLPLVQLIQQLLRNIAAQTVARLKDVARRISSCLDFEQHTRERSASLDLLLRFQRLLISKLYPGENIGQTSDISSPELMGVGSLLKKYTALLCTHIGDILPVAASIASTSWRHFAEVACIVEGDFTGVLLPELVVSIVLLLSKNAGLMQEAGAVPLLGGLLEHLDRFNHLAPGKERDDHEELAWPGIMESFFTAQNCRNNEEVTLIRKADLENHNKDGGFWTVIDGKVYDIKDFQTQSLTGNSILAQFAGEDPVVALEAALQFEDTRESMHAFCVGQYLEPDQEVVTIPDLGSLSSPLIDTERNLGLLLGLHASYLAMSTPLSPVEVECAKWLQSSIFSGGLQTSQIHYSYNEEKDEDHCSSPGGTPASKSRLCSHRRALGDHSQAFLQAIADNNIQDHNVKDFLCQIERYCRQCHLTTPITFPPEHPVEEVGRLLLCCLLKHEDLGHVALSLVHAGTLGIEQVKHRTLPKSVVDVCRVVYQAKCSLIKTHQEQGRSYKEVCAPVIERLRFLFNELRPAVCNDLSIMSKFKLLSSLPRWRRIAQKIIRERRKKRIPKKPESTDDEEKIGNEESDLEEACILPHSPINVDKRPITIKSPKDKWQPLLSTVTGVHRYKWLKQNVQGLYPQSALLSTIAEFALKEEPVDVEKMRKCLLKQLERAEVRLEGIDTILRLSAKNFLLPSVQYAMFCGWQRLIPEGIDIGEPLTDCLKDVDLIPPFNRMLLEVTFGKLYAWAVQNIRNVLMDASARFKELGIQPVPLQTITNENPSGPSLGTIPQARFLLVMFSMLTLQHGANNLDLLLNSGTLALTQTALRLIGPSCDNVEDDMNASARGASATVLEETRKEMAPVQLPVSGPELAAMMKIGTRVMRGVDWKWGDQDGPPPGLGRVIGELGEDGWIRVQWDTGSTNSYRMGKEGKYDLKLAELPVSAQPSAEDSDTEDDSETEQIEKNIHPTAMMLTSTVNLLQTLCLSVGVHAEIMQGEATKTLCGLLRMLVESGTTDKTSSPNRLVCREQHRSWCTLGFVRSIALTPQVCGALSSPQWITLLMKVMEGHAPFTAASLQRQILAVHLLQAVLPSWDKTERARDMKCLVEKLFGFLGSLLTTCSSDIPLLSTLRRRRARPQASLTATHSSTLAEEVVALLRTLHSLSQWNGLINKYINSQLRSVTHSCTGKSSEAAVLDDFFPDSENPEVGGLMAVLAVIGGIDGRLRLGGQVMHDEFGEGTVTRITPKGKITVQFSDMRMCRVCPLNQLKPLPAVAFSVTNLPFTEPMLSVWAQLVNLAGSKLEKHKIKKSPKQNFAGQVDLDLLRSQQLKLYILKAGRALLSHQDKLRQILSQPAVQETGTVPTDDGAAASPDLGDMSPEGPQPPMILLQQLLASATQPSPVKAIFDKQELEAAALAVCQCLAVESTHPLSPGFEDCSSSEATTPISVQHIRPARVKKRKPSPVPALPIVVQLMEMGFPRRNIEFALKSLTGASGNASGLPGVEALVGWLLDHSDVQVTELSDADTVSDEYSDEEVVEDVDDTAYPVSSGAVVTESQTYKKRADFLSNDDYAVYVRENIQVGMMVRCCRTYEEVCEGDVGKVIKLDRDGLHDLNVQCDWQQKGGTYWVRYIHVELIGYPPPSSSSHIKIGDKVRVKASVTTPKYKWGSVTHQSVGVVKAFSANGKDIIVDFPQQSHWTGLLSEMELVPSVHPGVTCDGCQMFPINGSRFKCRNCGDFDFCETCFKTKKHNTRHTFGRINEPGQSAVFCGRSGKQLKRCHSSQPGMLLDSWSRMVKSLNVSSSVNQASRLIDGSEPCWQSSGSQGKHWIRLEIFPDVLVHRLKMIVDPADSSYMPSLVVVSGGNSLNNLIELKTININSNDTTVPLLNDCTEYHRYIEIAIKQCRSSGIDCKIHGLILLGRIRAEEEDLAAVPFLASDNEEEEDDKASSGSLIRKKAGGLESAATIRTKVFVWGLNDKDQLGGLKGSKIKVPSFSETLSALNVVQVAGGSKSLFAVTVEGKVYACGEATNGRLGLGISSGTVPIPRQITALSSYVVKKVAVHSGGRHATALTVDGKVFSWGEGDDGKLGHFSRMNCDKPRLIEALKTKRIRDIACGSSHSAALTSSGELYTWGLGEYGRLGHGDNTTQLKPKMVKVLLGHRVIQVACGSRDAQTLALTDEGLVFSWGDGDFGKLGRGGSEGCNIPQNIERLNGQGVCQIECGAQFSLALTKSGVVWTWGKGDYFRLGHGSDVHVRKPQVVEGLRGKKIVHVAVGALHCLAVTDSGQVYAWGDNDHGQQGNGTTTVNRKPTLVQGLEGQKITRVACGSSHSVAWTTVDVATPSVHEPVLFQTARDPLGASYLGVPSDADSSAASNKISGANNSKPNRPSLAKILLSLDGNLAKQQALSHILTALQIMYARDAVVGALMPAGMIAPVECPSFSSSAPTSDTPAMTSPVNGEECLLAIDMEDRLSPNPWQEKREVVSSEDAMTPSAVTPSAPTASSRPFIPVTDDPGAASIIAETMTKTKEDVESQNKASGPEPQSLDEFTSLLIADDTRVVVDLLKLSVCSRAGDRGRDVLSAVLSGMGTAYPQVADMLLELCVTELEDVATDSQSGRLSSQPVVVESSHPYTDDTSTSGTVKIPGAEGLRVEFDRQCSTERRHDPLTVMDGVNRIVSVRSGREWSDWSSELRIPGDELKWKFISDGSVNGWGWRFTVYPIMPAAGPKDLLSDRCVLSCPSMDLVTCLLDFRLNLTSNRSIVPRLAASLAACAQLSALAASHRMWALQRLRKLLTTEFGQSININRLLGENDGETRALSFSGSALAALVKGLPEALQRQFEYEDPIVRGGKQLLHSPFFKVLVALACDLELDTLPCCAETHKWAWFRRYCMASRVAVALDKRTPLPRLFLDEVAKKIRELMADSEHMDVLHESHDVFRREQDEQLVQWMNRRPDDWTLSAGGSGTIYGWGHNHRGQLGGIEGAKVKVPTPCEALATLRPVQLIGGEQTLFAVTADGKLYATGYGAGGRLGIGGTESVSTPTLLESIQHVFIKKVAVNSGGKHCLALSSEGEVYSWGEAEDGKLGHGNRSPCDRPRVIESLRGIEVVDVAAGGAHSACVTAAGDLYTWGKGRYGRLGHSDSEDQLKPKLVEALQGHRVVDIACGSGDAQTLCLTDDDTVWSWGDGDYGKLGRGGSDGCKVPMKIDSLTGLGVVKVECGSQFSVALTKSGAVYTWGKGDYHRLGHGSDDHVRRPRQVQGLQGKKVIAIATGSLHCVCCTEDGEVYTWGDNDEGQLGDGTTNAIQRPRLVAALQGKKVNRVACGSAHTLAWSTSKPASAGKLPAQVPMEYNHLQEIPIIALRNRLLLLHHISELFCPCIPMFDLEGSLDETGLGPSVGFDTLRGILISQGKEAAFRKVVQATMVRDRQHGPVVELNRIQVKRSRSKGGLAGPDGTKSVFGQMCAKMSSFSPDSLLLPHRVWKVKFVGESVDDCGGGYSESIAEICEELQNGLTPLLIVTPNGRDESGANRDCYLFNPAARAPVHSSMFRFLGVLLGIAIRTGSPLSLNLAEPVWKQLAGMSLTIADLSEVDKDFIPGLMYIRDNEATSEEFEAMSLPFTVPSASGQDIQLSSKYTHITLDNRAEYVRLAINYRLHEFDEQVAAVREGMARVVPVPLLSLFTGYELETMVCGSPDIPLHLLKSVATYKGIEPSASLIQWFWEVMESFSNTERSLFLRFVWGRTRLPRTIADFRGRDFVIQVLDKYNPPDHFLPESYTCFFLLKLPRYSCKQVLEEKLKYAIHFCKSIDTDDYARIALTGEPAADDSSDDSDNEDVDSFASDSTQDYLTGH

Assay [2] deals with CCT8-TwinStrep (human) (UniProt P50990). The description is as above.

These are yes or no findings as the source states them, for the method shown. Binding seen in cells or lysates may run through a third protein. Here binding means that the protein was enriched with, or labelled near, the bait; the list need not be complete. No binding means not detected with the bait.

With “HERC2 (endogenous, rabbit reticulocyte lysate) (from UniProt G1SRN9 1-4806) (enzyme)”, the binding entry in assay [1] and in assay [2] was “no binding” each time.

The record behind these values is article PMC10501995.
